At least one compound was matched to its structure with a doubt left.
Tested on: artificial clots enriched in NETs
Experiment: Clot-device detaching time with coated thrombectomy devices
Design: species or system human
Conditions: coated clinical grade thrombectomy device with adhering clot agitated in saline (PBS); experiments in duplicate

`Clc1ccc2c(N3CCN(CCCN4CCN(c5ccnc6cc(Cl)ccc56)CC4)CC3)ccnc2c1` [Piperaquine, 4-(4-(4-((5-azidopentyl)oxy)butyl)piperazin-1-yl) chloroquinoline] was tested. Which “Time delay to clot detachment” value did it give?
Its value is 5 ± 2 s.

Source: patent US20230241057A1, “COMPOUNDS FOR THE PREVENTION, TREATMENT AND DIAGNOSIS OF THROMBI” (INSERM (INSTITUT NATIONAL DE LA SANTÉ ET DE LA RECHERCHE …, priority 2020, published 2023)
